The source of these data is paper PMC7338081.

The target of test [1] is T1, Cox12, a subunit of CIV (S. cerevisiae (endogenous in YPH499 mitochondria)) (UniProt Q01519).
T1 sequence: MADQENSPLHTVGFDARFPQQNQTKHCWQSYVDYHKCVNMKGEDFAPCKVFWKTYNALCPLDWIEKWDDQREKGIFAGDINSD
In words: cross-linking; XL-MS, qualitative data sets: purified mitochondria from yeast grown on glycerol or glucose medium, 5 mM BS3, 1 h, room temperature, 10 mM HEPES pH 7.5, 100 mM NaCl; trypsin, peptide SEC, LC-MS/MS, pLink 1, at least two CSMs and spectrum score of 4 or more.

For test [2], the target named is Rcf3 (S. cerevisiae (endogenous in YPH499 mitochondria)). The description is as above.

These are yes or no findings as the source states them, for the method shown. In cells and extracts the contact can be indirect. For part of these data: Binding calls can cover weak binding; strength is not graded here.

As to Rcf3, the binding result in test [1] was “binds”.

B1: Rcf2 (protein, UniProt P53721 1-224)
chain: MKILTQDEIEAHRSHTLKGGIEGALAGFAISAIIFKVLPRRYPKFKPSTLTWSIKTALWITPPTVLTAICAEEASNNFDATMYGSGSSSEDALDEHRRWKSLSTKDKFVEGLSNNKYKIITGAWAASLYGSWVIVNKDPIMTKAQKIVQARMYAQFITVGLLLASVGLSMYENKLHPNKQKVNEMRRWENALRVAEEEERLEKEGRRTGYVSNEERINSKIFKS
Take B1: the binding entry in test [2] is “no binding”.

B2: Min8 (protein, UniProt A5Z2X5 1-72)
chain: MRPAQLLLNTAKKTSGGYKIPVELTPLFLAVGVALCSGTYFTYKKLRTDETLRLTGNPELSSLDEVLAKDKD
On to B2, for which the binding result in test [2] was “no binding”.
